Laboratory results reported in publication PMC9535003.
Results are given in words; binding and its absence hold for the method and conditions named. Binding seen in cells or lysates may run through a third protein. Binding calls can cover weak binding; strength is not graded here. Where a sequence is shown, tags or fusion partners need not be part of it.

Sequences of proteins named here, by UniProt entry; tags and fusion partners are left off. A change or cut given only in a name is not applied to a line headed by its entry.
UniProt Q9LID3: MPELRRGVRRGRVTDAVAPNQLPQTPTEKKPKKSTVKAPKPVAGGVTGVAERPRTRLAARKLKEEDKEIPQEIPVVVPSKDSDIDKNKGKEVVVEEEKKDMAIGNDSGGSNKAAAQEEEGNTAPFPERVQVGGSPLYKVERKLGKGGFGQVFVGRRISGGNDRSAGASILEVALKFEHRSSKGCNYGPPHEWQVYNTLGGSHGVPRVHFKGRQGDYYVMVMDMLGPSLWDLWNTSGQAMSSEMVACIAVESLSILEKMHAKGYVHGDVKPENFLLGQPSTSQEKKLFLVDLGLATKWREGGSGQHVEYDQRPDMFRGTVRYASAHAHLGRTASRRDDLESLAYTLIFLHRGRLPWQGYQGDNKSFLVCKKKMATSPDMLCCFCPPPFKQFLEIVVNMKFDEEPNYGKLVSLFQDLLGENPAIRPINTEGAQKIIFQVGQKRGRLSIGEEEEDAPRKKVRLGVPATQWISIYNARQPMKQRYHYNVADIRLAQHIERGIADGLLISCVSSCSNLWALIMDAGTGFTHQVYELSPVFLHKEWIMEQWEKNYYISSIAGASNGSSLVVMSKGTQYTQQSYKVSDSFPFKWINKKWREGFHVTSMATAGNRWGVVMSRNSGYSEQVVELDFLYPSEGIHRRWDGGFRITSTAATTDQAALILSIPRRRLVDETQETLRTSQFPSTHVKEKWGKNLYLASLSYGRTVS
UniProt Q9FK52: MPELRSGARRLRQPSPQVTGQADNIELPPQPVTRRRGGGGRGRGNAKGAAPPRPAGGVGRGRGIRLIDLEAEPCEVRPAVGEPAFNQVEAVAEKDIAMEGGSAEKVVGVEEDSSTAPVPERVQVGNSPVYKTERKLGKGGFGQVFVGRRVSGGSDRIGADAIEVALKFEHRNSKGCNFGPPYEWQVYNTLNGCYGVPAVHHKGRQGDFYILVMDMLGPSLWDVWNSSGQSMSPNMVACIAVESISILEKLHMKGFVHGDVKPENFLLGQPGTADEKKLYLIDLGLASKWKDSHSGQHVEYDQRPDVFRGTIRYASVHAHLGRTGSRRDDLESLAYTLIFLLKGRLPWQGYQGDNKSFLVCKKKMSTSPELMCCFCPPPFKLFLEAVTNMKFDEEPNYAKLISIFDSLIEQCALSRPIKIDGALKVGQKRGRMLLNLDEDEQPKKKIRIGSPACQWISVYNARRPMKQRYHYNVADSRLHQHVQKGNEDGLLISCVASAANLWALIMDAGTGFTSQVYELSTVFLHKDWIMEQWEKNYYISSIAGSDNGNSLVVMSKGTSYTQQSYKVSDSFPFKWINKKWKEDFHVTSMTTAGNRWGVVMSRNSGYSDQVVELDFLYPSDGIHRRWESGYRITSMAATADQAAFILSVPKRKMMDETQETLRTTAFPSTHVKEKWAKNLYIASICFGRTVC
UniProt Q9SQR8: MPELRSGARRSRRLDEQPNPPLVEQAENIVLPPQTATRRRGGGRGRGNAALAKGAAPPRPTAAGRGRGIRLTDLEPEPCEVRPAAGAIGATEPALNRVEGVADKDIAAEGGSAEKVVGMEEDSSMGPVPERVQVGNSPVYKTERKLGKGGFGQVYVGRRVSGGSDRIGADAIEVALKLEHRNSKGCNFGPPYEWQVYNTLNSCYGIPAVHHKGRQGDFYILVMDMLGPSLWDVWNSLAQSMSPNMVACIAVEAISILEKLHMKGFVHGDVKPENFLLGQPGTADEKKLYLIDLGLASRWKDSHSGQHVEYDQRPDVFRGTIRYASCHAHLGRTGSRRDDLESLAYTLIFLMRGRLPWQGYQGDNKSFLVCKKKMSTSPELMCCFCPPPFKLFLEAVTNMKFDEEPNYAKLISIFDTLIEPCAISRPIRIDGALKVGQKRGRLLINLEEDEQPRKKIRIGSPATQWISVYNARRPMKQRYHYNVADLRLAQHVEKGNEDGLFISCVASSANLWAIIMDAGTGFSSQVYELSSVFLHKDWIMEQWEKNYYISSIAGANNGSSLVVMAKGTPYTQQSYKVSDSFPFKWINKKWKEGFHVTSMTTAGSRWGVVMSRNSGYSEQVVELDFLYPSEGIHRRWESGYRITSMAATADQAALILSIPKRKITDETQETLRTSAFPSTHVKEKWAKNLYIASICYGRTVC

How the values were obtained:
PRR9-GFP (Arabidopsis) = target: T1, PRR9-GFP (Arabidopsis) (UniProt Q8L500); assay: co-IP; competitive co-IP: PRR9-GFP immunoprecipitated, TPL-FLAG or PPK1-Flag co-expressed with or without CRY2-HA; blots with GFP, Flag and HA antibodies
T1 sequence: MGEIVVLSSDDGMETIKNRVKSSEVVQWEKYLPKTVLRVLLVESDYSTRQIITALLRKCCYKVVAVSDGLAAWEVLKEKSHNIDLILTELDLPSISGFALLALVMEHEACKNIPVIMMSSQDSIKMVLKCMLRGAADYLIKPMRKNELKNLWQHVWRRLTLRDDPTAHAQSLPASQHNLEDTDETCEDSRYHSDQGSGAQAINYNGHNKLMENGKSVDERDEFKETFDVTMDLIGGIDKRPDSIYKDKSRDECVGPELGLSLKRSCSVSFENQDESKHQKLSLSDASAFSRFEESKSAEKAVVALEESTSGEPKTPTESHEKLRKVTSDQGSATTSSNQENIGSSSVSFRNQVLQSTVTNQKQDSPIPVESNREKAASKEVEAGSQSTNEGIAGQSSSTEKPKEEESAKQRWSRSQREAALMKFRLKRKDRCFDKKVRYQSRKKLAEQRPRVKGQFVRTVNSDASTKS

PRR9-MBP (Arabidopsis) = target: T2, PRR9-MBP (Arabidopsis) (UniProt Q8L500); assay: pull-down; recombinant PRR9-MBP or MBP resin incubated with extracts of tobacco leaves or Arabidopsis seedlings, 4 C, 2 h; pulled-down proteins detected with GFP antibody; GFP-CRY2 seedlings exposed to dark, red or blue light (10 umol m^-2 s^-1) for 10 min; only the target purified
T2 sequence: T1 sequence

PRR9-nYFP (Arabidopsis) = target: T3, PRR9-nYFP (Arabidopsis) (UniProt Q8L500); assay: split reporter; BiFC: nYFP and cYFP fusions and H2B-mCherry co-infiltrated (5:5:1) into N. benthamiana leaves for 3 days; confocal microscopy
T3 sequence: T1 sequence

PPK1-GFP (Arabidopsis) = assay: co-IP; co-expression in N. benthamiana leaves, 3 days; GFP-Trap beads, 4 C, 1 h, 150 mM NaCl, 0.2% NP-40; blots with GFP and HA antibodies; for CRY2-GFP and PRR9-HA also after 10 min dark, red or blue light (10 umol m^-2 s^-1)
[1] = target: PPK1^K175A-GFP (Arabidopsis); assay: as above
PPK2-GFP (Arabidopsis) = assay: as above
PPK3-GFP (Arabidopsis) = assay: as above
PPK4-GFP (Arabidopsis) = assay: as above

For PPK1-Flag (Arabidopsis) (enzyme), the binding (PRR9-GFP (Arabidopsis)) was “binds”.

In the case of PPK1-GFP (Arabidopsis) (enzyme), the binding (PRR9-MBP (Arabidopsis)) is reported as “binds”.

With “PPK1-cYFP (from UniProt Q9LID3) (enzyme)” the binding (PRR9-nYFP (Arabidopsis)) was “binds”.

For PPK2-GFP (Arabidopsis) (enzyme), the binding (PRR9-MBP (Arabidopsis)) was “binds”.

For “PPK2-cYFP (from UniProt Q9FK52) (enzyme)”, the binding (PRR9-nYFP (Arabidopsis)) was “binds”.

With PPK3-GFP (Arabidopsis) (enzyme) the binding (PRR9-MBP (Arabidopsis)) was “binds”.

In the case of “PPK3-cYFP (from UniProt Q9SQR8) (enzyme)”, the binding (PRR9-nYFP (Arabidopsis)) is reported as “binds”.

For PPK4-GFP (Arabidopsis) (enzyme), the binding (PRR9-MBP (Arabidopsis)) was “binds”.

PPK4-cYFP (Arabidopsis) (enzyme) was tested, and the binding (PRR9-nYFP (Arabidopsis)) was “binds”.

B1: PRR9-HA (protein, UniProt Q8L500 1-468)
chain: T1 sequence
For B1, the binding (PPK1-GFP (Arabidopsis)) was “binds”, the binding [1] was “binds” and the binding (PPK2-GFP (Arabidopsis)) was “binds”. The binding (PPK3-GFP (Arabidopsis)) was “binds” and the binding (PPK4-GFP (Arabidopsis)) was “binds”.
